According to PMC5788269:
Results are given in words; binding and its absence hold for the method and conditions named. Some results given as binding are weak or reduced against the parent protein; the word gives no strength.

Amino acid sequences for entries named in this document (tags omitted). A change or cut given only in a name is not applied to a line headed by its entry.
UniProt Q06632: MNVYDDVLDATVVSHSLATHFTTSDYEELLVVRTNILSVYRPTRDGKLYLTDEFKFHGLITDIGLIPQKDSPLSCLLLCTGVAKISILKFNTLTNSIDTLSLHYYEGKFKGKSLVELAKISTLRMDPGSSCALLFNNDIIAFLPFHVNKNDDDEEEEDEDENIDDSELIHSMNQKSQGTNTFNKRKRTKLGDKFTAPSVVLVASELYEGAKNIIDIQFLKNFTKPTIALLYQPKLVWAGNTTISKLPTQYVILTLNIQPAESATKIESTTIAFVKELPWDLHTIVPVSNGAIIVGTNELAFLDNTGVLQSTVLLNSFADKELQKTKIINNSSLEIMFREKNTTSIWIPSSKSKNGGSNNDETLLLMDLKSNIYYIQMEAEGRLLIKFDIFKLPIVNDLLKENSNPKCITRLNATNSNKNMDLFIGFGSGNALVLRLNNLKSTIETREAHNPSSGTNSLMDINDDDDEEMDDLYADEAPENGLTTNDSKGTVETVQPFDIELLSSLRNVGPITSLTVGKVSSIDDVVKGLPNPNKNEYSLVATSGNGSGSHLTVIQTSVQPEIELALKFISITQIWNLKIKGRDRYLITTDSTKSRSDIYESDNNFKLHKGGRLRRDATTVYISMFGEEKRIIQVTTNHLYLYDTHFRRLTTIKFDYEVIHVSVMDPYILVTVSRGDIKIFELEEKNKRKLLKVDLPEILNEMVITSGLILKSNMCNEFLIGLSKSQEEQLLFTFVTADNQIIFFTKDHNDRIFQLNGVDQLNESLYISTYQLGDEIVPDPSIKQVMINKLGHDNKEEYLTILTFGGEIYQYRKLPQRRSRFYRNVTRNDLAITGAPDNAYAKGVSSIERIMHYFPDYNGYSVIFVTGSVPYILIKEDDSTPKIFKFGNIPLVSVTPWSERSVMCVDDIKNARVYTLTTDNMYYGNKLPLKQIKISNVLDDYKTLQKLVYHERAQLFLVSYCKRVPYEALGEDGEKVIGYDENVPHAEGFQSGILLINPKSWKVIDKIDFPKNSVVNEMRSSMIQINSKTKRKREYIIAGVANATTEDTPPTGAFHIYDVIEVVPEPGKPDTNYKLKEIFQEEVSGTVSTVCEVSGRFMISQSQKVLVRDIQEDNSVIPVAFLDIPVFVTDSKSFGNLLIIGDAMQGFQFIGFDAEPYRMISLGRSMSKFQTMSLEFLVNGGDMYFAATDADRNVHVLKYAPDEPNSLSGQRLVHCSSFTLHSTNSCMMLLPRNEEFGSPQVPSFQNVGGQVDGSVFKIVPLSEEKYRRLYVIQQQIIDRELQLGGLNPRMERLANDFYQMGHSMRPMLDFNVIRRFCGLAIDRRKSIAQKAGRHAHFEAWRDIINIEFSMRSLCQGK
UniProt P42841: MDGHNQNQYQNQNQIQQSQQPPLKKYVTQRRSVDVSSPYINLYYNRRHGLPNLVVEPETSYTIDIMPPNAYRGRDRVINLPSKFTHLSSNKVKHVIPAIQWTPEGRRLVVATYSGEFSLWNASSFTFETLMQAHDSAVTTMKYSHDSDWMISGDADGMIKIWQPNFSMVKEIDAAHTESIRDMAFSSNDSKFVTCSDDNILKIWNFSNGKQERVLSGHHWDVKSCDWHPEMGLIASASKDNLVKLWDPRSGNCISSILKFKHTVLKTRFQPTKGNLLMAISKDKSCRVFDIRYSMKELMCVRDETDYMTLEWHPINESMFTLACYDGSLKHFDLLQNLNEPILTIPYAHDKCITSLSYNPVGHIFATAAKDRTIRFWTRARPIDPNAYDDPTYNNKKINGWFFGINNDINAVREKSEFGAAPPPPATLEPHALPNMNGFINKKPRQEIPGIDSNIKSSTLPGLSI
UniProt Q06102: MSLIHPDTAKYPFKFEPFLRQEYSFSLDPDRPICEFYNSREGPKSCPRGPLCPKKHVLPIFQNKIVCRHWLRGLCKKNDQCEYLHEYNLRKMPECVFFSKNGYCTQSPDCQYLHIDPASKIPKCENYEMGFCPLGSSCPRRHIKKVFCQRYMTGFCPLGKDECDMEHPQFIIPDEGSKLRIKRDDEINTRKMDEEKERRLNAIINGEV
UniProt P45976: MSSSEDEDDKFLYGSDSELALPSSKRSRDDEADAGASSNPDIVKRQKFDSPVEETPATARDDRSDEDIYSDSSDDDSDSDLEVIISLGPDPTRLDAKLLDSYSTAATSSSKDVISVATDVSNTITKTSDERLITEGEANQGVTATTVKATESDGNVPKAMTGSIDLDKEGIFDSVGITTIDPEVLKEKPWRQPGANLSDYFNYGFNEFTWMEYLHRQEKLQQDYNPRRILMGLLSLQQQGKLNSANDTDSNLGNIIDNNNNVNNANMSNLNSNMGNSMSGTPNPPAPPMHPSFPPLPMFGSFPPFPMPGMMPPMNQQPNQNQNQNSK
UniProt P29468: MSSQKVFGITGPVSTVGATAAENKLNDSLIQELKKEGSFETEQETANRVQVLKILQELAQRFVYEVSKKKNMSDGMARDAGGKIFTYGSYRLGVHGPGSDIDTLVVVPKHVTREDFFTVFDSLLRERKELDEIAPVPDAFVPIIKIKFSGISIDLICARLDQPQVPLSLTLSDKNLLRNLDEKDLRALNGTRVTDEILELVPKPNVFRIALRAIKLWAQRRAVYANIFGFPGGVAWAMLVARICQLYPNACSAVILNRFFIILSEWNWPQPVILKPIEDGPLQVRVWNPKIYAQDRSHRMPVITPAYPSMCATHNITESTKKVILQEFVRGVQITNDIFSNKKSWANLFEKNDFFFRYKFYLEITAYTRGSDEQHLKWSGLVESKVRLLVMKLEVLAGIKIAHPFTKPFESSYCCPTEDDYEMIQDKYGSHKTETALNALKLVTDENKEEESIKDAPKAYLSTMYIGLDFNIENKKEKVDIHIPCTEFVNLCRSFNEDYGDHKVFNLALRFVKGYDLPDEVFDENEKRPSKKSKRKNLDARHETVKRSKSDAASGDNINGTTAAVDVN
UniProt P25298: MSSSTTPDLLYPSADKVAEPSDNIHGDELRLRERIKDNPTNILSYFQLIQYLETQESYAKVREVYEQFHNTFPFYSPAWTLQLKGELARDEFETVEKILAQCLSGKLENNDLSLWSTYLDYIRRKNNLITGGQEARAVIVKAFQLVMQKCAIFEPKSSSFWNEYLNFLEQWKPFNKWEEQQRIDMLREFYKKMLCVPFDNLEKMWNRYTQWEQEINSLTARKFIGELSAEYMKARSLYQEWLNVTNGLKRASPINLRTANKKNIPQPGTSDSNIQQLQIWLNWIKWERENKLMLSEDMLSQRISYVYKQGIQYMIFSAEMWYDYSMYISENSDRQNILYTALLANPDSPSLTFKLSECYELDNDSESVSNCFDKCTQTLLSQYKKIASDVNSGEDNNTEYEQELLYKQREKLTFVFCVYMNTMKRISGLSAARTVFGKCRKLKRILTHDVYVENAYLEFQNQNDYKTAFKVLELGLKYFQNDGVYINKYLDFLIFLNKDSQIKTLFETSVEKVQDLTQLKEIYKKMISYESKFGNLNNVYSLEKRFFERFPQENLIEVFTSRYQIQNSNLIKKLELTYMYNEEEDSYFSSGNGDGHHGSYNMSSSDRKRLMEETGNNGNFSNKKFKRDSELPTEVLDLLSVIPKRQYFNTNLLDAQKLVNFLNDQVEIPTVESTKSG

How the values were obtained:
[1] = target: recombinant four-subunit complex (Cft1, Pfs2, Yth1, Fip1) (yeast) (UniProt Q06632+P42841+Q06102+P45976); assay: co-purification of the overexpressed complex; polymerase module overexpressed in insect cells, purified with or without the Pap1 subunit
[2] = target: polymerase module of CPF (recombinant; Cft1, Pfs2, Pap1, Fip1, Yth1) (yeast) (UniProt Q06632+P42841+P29468+P45976+Q06102); assay: pull-down; polymerase module immobilized, incubated with purified MBP, CF IA or Rna14–Rna15; Coomassie-stained SDS-PAGE; both purified

| binding [1] | binding [2] | Substance |
| --- | --- | --- |
| binds |  | Pap1 (recombinant, polymerase module) (from UniProt P29468 1-568) (enzyme) |
|  | binds | cleavage factor IA (CF IA), recombinant (from UniProt P25298 1-677; P25299 1-296; P39081 1-626; Q08685 1-445) (complex) |
